# Reference: patent publication US20090291899A1 (published 2009)
# Sequences of proteins named here, by UniProt entry; tags and fusion partners are left off. A change or cut given only in a name is not applied to a line headed by its entry.
# UniProt P19438: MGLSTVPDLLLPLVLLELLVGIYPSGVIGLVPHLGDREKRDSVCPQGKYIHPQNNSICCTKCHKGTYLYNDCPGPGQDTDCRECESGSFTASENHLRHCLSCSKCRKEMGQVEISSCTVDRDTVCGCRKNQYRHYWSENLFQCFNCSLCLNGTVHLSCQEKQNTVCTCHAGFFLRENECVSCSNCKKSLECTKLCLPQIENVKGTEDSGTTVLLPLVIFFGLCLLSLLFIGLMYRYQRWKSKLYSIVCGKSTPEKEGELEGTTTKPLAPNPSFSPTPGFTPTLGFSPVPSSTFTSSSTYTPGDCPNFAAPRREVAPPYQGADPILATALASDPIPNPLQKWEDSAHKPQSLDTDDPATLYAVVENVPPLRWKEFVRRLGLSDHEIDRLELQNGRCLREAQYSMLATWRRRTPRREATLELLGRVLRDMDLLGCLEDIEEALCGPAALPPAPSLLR
# These are yes or no findings as the source states them, for the method shown. Some results given as binding are weak or reduced against the parent protein; the word gives no strength. For some of these results: Sequences can lack the tags named with a protein. Where no end group is shown, it is not given here.
# B1: TNF70-80 (Pro-Ser-Thr-His-Val-Leu-Ile-Thr-His-Thr-Ile-OH) (peptide)
# peptide: PSTHVLITHTI-OH
# notes: 4; also called Peptide A; TNF mimetic peptide
# Assays:
# [1] = biological target: T1, TNFR1 fragment M4 (H-…-OH) (human); assay: ELISA on plates coated with M4 peptide, streptavidin-HRP, absorbance at 450 nm
# T1 sequence (peptide): HHHHHHLKPGTT
# [2] = biological target: recombinant human soluble TNF receptor inhibitor/Fc chimera (rHusTNFRI) (human) (UniProt P19438); assay: solid-phase binding ELISA, streptavidin-HRP detection
# [3] = biological target: recombinant human soluble TNF receptor inhibitor/Fc chimera (rHusTNFRI) (human) (UniProt P19438); assay: solid-phase competition ELISA against biotinylated TNF70-80
# [4] = biological target: recombinant human soluble TNF receptor inhibitor/Fc chimera (rHusTNFRI) (human) (UniProt P19438); assay: solid-phase competition ELISA on immobilised rHusTNFRI
binder,measurement,setting,value
"PSTHVLITHTI (biotin label, position not stated) [biotin-labelled TNF70-80]",binding,[1],binds
same,binding,[2],binds
B1,binding,[3],binds
same,binding,[4],binds
